First the molecules themselves.
B1: Malate dehydrogenase (Mdh), endogenous in A549 (protein, UniProt P40926-1 25-338)
chain: AKVAVLGASGGIGQPLSLLLKNSPLVSRLTLYDIAHTPGVAADLSHIETKAAVKGYLGPEQLPDCLKGCDVVVIPAGVPRKPGMTRDDLFNTNATIVATLTAACAQHCPEAMICVIANPVNSTIPITAEVFKKHGVYNPNKIFGVTTLDIVRANTFVAELKGLDPARVNVPVIGGHAGKTIIPLISQCTPKVDFPQDQLTALTGRIQEAGTEVVKAKAGAGSATLSMAYAGARFVFSLVDAMNGKEGVVECSFVKSQETECTYFSTPLLLGKKGIEKNLGIGKVSSFEEKMISDAIPELKASIKKGEDFVKTLK
B2: Electron-transfer flavoprotein (Etfb), endogenous in A549 (protein, UniProt P38117-1 1-255)
chain: MAELRVLVAVKRVIDYAVKIRVKPDRTGVVTDGVKHSMNPFCEIAVEEAVRLKEKKLVKEVIAVSCGPAQCQETIRTALAMGADRGIHVEVPPAEAERLGPLQVARVLAKLAEKEKVDLVLLGKQAIDDDCNQTGQMTAGFLDWPQGTFASQVTLEGDKLKVEREIDGGLETLRLKLPAVVTADLRLNEPRYATLPNIMKAKKKKIEVIKPGDLGVDLTSKLSVISVEDPPQRTAGVKVETTEDLVAKLKEIGRI
B3: Ferredoxin reductase (Fdxr), endogenous in A549 (protein, UniProt P22570 33-491)
chain: STQEKTPQICVVGSGPAGFYTAQHLLKHPQAHVDIYEKQPVPFGLVRFGVAPDHPEVKNVINTFTQTAHSGRCAFWGNVEVGRDVTVPELREAYHAVVLSYGAEDHRALEIPGEELPGVCSARAFVGWYNGLPENQELEPDLSCDTAVILGQGNVALDVARILLTPPEHLERTDITKAALGVLRQSRVKTVWLVGRRGPLQVAFTIKELREMIQLPGARPILDPVDFLGLQDKIKEVPRPRKRLTELLLRTATEKPGPAEAARQASASRAWGLRFFRSPQQVLPSPDGRRAAGVRLAVTRLEGVDEATRAVPTGDMEDLPCGLVLSSIGYKSRPVDPSVPFDSKLGVIPNVEGRVMDVPGLYCSGWVKRGPTGVIATTMTDSFLTGQMLLQDLKAGLLPSGPRPGYAAIQALLSSRGVRPVSFSDWEKLDAEEVARGQGTGKPREKLVDPQEMLRLLGH

Protein sequences, listed by entry. Tags and fused reporters are not part of them. Residues count along the entry.
UniProt P49789: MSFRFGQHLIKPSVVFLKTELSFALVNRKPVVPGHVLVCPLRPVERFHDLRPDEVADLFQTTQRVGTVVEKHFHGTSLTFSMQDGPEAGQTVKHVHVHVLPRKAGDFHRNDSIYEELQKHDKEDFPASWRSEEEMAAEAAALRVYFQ
UniProt P61604: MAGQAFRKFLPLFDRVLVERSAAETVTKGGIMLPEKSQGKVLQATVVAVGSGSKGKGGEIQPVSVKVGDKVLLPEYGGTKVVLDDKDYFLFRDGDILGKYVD
UniProt P05091, residues 18-517: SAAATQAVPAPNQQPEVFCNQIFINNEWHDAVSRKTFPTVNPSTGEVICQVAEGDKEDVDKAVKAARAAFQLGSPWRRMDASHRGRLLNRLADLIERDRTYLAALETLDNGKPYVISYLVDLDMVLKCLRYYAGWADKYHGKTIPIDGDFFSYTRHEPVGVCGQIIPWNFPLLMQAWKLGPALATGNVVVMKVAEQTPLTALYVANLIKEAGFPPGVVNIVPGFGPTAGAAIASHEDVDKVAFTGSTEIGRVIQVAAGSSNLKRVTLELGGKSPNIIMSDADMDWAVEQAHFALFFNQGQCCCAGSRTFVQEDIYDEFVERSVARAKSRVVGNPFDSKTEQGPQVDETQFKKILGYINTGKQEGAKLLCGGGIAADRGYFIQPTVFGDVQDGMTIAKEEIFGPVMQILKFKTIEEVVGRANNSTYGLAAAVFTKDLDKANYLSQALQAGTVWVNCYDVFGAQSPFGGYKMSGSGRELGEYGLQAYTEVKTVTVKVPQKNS
UniProt P10809, residues 27-573: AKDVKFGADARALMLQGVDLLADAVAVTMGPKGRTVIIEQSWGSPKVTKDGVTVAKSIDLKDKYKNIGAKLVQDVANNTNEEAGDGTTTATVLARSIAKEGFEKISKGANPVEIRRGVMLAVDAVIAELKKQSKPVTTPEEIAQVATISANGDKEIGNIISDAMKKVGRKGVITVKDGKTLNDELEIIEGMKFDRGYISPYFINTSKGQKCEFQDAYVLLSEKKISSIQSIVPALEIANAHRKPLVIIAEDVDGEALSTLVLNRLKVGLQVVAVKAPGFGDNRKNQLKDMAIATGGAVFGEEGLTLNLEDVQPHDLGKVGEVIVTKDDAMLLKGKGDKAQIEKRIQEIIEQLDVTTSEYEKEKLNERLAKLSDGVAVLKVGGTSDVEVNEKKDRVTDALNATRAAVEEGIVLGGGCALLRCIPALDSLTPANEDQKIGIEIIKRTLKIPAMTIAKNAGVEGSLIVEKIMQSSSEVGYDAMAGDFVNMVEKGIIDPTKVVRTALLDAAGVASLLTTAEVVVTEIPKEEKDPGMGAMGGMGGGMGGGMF

No constants are given. Whether binding was seen depends on the method and setting. Binding seen in cells or lysates may run through a third protein. These calls come from enrichment with a bait or labelling near it, and not all partners need be listed.

For the assay, the target named is Fhit-His6 (His-tagged Fhit from adenovirus AdFHIT-His6) (human) (UniProt P49789). Nature of the assay: affinity purification with mass spectrometry; A549 cells infected with AdFHIT-His6 (control: AdFHIT), cross-linked in vivo with DSP, lysed, proteins isolated with nickel (Ni-NTA) beads, DSP cleaved with DTT, trypsin digest, LC-MS/MS; proteins found only in the AdFHIT-His6 sample kept.
“HSP10 (10-kDa heat-shock protein), endogenous in A549 (from UniProt P61604 1-102)”: the binding result is recorded as “binds”.

On to “Mitochondrial aldehyde dehydrogenase 2 (Aldh2), endogenous in A549 (from UniProt P05091-1 18-517)”, for which the binding entry is “binds”.

For “HSP60 (60-kDa heat-shock protein), endogenous in A549 (from UniProt P10809-1 27-573)”, the binding result is listed as “binds”.

For the molecule B1, the binding result was “binds”.

In the case of B2, the binding entry is recorded as “binds”.

Consider B3, for which the binding entry was “binds”.

Source of the values: article PMC6377664.
